# According to the supplement of paper PMC8728848:
# Some of the results follow.
# B1: Mincle (Bos taurus) (protein)
# chain: MNSSTSPASQTERRCFSFQLFSWAIAGTSILLLSACFITRCVVTYSIFQLCDEKKFQPPGDSMELSCYNDGSGSVKNCCPLKWFHFQSSCYLFSPDTMSWRASLKNCSSMGAHLVVINTQEEQEFLYYTKPRKKEFYIGLTDQVTEGQWQWVDGTPFTKSLSFWDAGEPNNLVIVEDCATIRDSSNPRQNWNDVPCFFNMFRVCEMPERKI
# How the values were obtained:
# Experiment in all cases: glycan array binding signal (z-score within array); higher = stronger binding
# Details in all cases: glycan notation: IUPAC condensed, linker removed
# [1] = biological target: Fuc(a1-2)Gal
# Outline: (§1)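 Glycan array data came from 3228 arrays in the Consortium for Functional Glycomics database, and only arrays with an available protein sequence were kept. Glycan names were put into IUPAC-condensed notation, and columns mapping to the same glycan were averaged. The binding signal is a within-array Z-score, averaged across arrays of one protein sequence run at different concentrations or buffers and across linkers. A negative Z-score can be read as non-binding.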
# [2] = biological target: Fuc(a1-2)Gal(b1-3)GalNAc
# Outline: as §1
# [3] = biological target: Fuc(a1-2)Gal(b1-3)GalNAc(a1-3)[Fuc(a1-2)]Gal(b1-4)Glc
# Outline: as §1
# [4] = biological target: Fuc(a1-2)Gal(b1-3)GalNAc(a1-3)[Fuc(a1-2)]Gal(b1-4)GlcNAc
# Outline: as §1
# [5] = biological target: Fuc(a1-2)Gal(b1-3)GalNAc(b1-3)Gal
# Outline: as §1
# [6] = biological target: Fuc(a1-2)Gal(b1-3)GalNAc(b1-3)Gal(a1-4)Gal(b1-4)Glc
# Outline: as §1
# [7] = biological target: Fuc(a1-2)Gal(b1-3)GalNAc(b1-4)[Neu5Ac(a2-3)]Gal(b1-4)Glc
# Outline: as §1
# [8] = biological target: Fuc(a1-2)Gal(b1-3)GlcNAc
# Outline: as §1
# [9] = biological target: Fuc(a1-2)Gal(b1-3)GlcNAc(b1-2)Man(a1-3)[Fuc(a1-2)Gal(b1-3)GlcNAc(b1-2)Man(a1-6)]Man(b1-4)GlcNAc(b1-4)GlcNAc
# Outline: as §1
# [10] = biological target: Fuc(a1-2)Gal(b1-3)GlcNAc(b1-2)Man(a1-3)[Fuc(a1-2)Gal(b1-3)GlcNAc(b1-2)Man(a1-6)]Man(b1-4)GlcNAc(b1-4)[Fuc(a1-6)]GlcNAc
# Outline: as §1
# [11] = biological target: Fuc(a1-2)Gal(b1-3)GlcNAc(b1-3)Gal(b1-4)Glc
# Outline: as §1
# [12] = biological target: Fuc(a1-2)Gal(b1-3)GlcNAc(b1-3)GalNAc
# Outline: as §1
# [13] = biological target: Fuc(a1-2)Gal(b1-3)GlcNAc(b1-3)[Fuc(a1-2)Gal(b1-3)GlcNAc(b1-6)]GalNAc
# Outline: as §1
# [14] = biological target: Fuc(a1-2)Gal(b1-3)GlcNAc(b1-3)[Gal(b1-4)GlcNAc(b1-6)]Gal(b1-4)Glc
# Outline: as §1
# [15] = biological target: Fuc(a1-2)Gal(b1-3)GlcNAc(b1-3)[Neu5Ac(a2-6)Gal(b1-4)GlcNAc(b1-6)]Gal(b1-4)Glc
# Outline: as §1
# [16] = biological target: Fuc(a1-2)Gal(b1-3)GlcNAc6S
# Outline: as §1
# [17] = biological target: Fuc(a1-2)Gal(b1-3)[Fuc(a1-4)]GlcNAc
# Outline: as §1
# [18] = biological target: Fuc(a1-2)Gal(b1-3)[Fuc(a1-4)]GlcNAc(b1-2)Man(a1-3)[Fuc(a1-2)Gal(b1-3)[Fuc(a1-4)]GlcNAc(b1-2)Man(a1-3)]Man(b1-4)GlcNAc(b1-4)GlcNAc
# Outline: as §1
# [19] = biological target: Fuc(a1-2)Gal(b1-3)[Fuc(a1-4)]GlcNAc(b1-2)Man(a1-3)[Fuc(a1-2)Gal(b1-3)[Fuc(a1-4)]GlcNAc(b1-2)Man(a1-6)]Man(b1-4)GlcNAc(b1-4)[Fuc(a1-6)]GlcNAc(b1-4)[Fuc(a1-6)]GlcNAc
# Outline: as §1
# [20] = biological target: Fuc(a1-2)Gal(b1-3)[Fuc(a1-4)]GlcNAc(b1-3)[Fuc(a1-3)[Gal(b1-4)]GlcNAc(b1-6)]Gal(b1-4)Glc
# Outline: as §1
# [21] = biological target: Fuc(a1-2)Gal(b1-3)[Fuc(a1-4)]GlcNAc(b1-3)[Gal(b1-4)GlcNAc(b1-6)]Gal(b1-4)Glc
# Outline: as §1
# [22] = biological target: Fuc(a1-2)Gal(b1-4)Glc
# Outline: as §1
# [23] = biological target: Fuc(a1-2)Gal(b1-4)Glc6S
# Outline: as §1
# [24] = biological target: Fuc(a1-2)Gal(b1-4)GlcNAc
# Outline: as §1
# [25] = biological target: Fuc(a1-2)Gal(b1-4)GlcNAc(b1-2)Man
# Outline: as §1
# [26] = biological target: Fuc(a1-2)Gal(b1-4)GlcNAc(b1-2)Man(a1-3)[Fuc(a1-2)Gal(b1-4)GlcNAc(b1-2)Man(a1-6)]Man(b1-4)GlcNAc(b1-4)GlcNAc
# Outline: as §1
# [27] = biological target: Fuc(a1-2)Gal(b1-4)GlcNAc(b1-2)Man(a1-3)[Fuc(a1-2)Gal(b1-4)GlcNAc(b1-2)Man(a1-6)]Man(b1-4)GlcNAc(b1-4)[Fuc(a1-6)]GlcNAc
# Outline: as §1
# [28] = biological target: Fuc(a1-2)Gal(b1-4)GlcNAc(b1-2)[Fuc(a1-2)Gal(b1-4)GlcNAc(b1-4)]Man(a1-3)[Fuc(a1-2)Gal(b1-4)GlcNAc(b1-2)Man(a1-6)]Man(b1-4)GlcNAc(b1-4)GlcNAc
# Outline: as §1
# [29] = biological target: Fuc(a1-2)Gal(b1-4)GlcNAc(b1-3)Gal(b1-4)GlcNAc
# Outline: as §1
# [30] = biological target: Fuc(a1-2)Gal(b1-4)GlcNAc(b1-3)Gal(b1-4)GlcNAc(b1-2)Man(a1-3)[Fuc(a1-2)Gal(b1-4)GlcNAc(b1-3)Gal(b1-4)GlcNAc(b1-2)Man(a1-6)]Man(b1-4)GlcNAc(b1-4)GlcNAc
# Outline: as §1
# [31] = biological target: Fuc(a1-2)Gal(b1-4)GlcNAc(b1-3)Gal(b1-4)GlcNAc(b1-3)Gal(b1-4)GlcNAc
# Outline: as §1
# [32] = biological target: Fuc(a1-2)Gal(b1-4)GlcNAc(b1-3)GalNAc
# Outline: as §1
# [33] = biological target: Fuc(a1-2)Gal(b1-4)GlcNAc(b1-3)[Fuc(a1-2)Gal(b1-4)GlcNAc(b1-6)]GalNAc
# Outline: as §1
# [34] = biological target: Fuc(a1-2)Gal(b1-4)GlcNAc(b1-3)[Fuc(a1-3)[Gal(b1-4)]GlcNAc(b1-6)]Gal(b1-4)Glc
# Outline: as §1
# [35] = biological target: Fuc(a1-2)Gal(b1-4)GlcNAc(b1-6)GalNAc
# Outline: as §1
# [36] = biological target: Fuc(a1-2)Gal(b1-4)GlcNAc6S
# Outline: as §1
# [37] = biological target: Fuc(a1-2)Gal(b1-4)[Fuc(a1-3)]GlcNAc
# Outline: as §1
# [38] = biological target: Fuc(a1-2)Gal(b1-4)[Fuc(a1-3)]GlcNAc(b1-2)Man(a1-3)[Fuc(a1-2)Gal(b1-4)[Fuc(a1-3)]GlcNAc(b1-2)Man(a1-6)]Man(b1-4)GlcNAc(b1-4)[Fuc(a1-6)]GlcNAc
# Outline: as §1
# [39] = biological target: Fuc(a1-2)Gal(b1-4)[Fuc(a1-3)]GlcNAc(b1-2)[Fuc(a1-2)Gal(b1-4)[Fuc(a1-3)]GlcNAc(b1-4)]Man(a1-3)[Fuc(a1-2)Gal(b1-4)[Fuc(a1-3)]GlcNAc(b1-2)Man(a1-6)]Man(b1-4)GlcNAc(b1-4)GlcNAc
# Outline: as §1
# [40] = biological target: Fuc(a1-2)Gal(b1-4)[Fuc(a1-3)]GlcNAc(b1-3)Gal(b1-4)[Fuc(a1-3)]GlcNAc
# Outline: as §1
# [41] = biological target: Fuc(a1-2)Gal(b1-4)[Fuc(a1-3)]GlcNAc(b1-3)Gal(b1-4)[Fuc(a1-3)]GlcNAc(b1-3)Gal(b1-4)[Fuc(a1-3)]GlcNAc
# Outline: as §1
# [42] = biological target: Fuc(a1-2)Gal(b1-4)[Fuc(a1-3)]GlcNAc(b1-3)GalNAc
# Outline: as §1
# [43] = biological target: Fuc(a1-2)Gal(b1-4)[Fuc(a1-3)]GlcNAc(b1-3)[Neu5Ac(a2-6)Gal(b1-4)GlcNAc(b1-6)]Gal(b1-4)Glc
# Outline: as §1
# [44] = biological target: Fuc(a1-2)Gal3S(b1-4)GlcNAc
# Outline: as §1
# [45] = biological target: Fuc(a1-2)Gal6S(b1-3)GlcNAc
# Outline: as §1
binder,measurement,setting,value
B1,glycan array binding signal (z-score),[1],3.49
same,glycan array binding signal (z-score),[2],-0.583
same,glycan array binding signal (z-score),[3],-0.129
same,glycan array binding signal (z-score),[4],-0.319
same,glycan array binding signal (z-score),[5],-0.813
same,glycan array binding signal (z-score),[6],-0.285
same,glycan array binding signal (z-score),[7],0.045
same,glycan array binding signal (z-score),[8],-0.435
same,glycan array binding signal (z-score),[9],1.77
same,glycan array binding signal (z-score),[10],-0.188
same,glycan array binding signal (z-score),[11],-0.17
same,glycan array binding signal (z-score),[12],-0.598
same,glycan array binding signal (z-score),[13],-1.06
same,glycan array binding signal (z-score),[14],0.118
same,glycan array binding signal (z-score),[15],-0.269
same,glycan array binding signal (z-score),[16],-0.632
same,glycan array binding signal (z-score),[17],-0.053
same,glycan array binding signal (z-score),[18],0.159
same,glycan array binding signal (z-score),[19],-0.356
same,glycan array binding signal (z-score),[20],0.245
same,glycan array binding signal (z-score),[21],-0.372
same,glycan array binding signal (z-score),[22],-0.027
same,glycan array binding signal (z-score),[23],0.141
same,glycan array binding signal (z-score),[24],-0.301
same,glycan array binding signal (z-score),[25],0.135
same,glycan array binding signal (z-score),[26],1.4
same,glycan array binding signal (z-score),[27],0.207
same,glycan array binding signal (z-score),[28],-0.188
same,glycan array binding signal (z-score),[29],-0.721
same,glycan array binding signal (z-score),[30],-0.406
same,glycan array binding signal (z-score),[31],0.153
same,glycan array binding signal (z-score),[32],-0.268
same,glycan array binding signal (z-score),[33],-0.228
same,glycan array binding signal (z-score),[34],1.09
same,glycan array binding signal (z-score),[35],-0.168
same,glycan array binding signal (z-score),[36],-0.32
same,glycan array binding signal (z-score),[37],0.139
same,glycan array binding signal (z-score),[38],0.219
same,glycan array binding signal (z-score),[39],1.16
same,glycan array binding signal (z-score),[40],0.341
same,glycan array binding signal (z-score),[41],0.087
same,glycan array binding signal (z-score),[42],0.822
same,glycan array binding signal (z-score),[43],-0.411
same,glycan array binding signal (z-score),[44],-0.533
same,glycan array binding signal (z-score),[45],-0.618

# Taken from the listing (13 entries):
binder,measurement,setting,value
B1,glycan array binding signal (z-score),[26],1.4
same,glycan array binding signal (z-score),[27],0.207
same,glycan array binding signal (z-score),[28],-0.188
same,glycan array binding signal (z-score),[29],-0.721
same,glycan array binding signal (z-score),[30],-0.406
same,glycan array binding signal (z-score),[31],0.153
same,glycan array binding signal (z-score),[32],-0.268
same,glycan array binding signal (z-score),[33],-0.228
same,glycan array binding signal (z-score),[34],1.09
same,glycan array binding signal (z-score),[35],-0.168
same,glycan array binding signal (z-score),[36],-0.32
same,glycan array binding signal (z-score),[37],0.139
same,glycan array binding signal (z-score),[38],0.219
